For at least one compound, name, drawing or mass did not settle the structure.
Tested on: B16-F0 melanoma
Assay: In vivo tumor model, B16-F0
Set-up: species or system mouse
Conditions: St6gal1−/− mice, with anti-VEGF mAb; Axitinib 30 mg/kg
Procedure: Mice were anesthetized and intracardiacally perfused with PBS and 4% (w/v) paraformaldehyde and tissues were embedded in OCT. To visualize the vasculature, mice were intravenously injected with FITC-conjugated Griffonia simplicifolia Lectin-1 (GLS-1B4; Vector) prior to heart perfusion and fixation. Pericyte maturation was assessed using Ab specific for α-SMA (1A4; Dako), desmin (D33; Dako), PDGFR-β (APB5; Biolegend) and RGS5 (HPA001821; Prestige Sigma). The fraction of pericyte coverage was calculated as the ratio of α-SMA area to the FITC-GLS-1B4 or CD31-stained area using a specific anti-CD31 Ab (Mec13.3; BD Biosciences). Hypoxia was detected after injection of pimonidazole hydrochloride for 30 min following immunostaining with Hypoxyprobe-1 plus kit (Natural Pharmacia). Tumor-infiltrating cells were analyzed using anti-CD8 (H35-17.2; e-Bioscience) and anti-F4/80 (BM8; eBioscience) mAb.
Wild-type or Gal1 knockdown B16-F0, LLC1 and R1.1 (2.5 or 5×10^5 cells) were subcutaneously inoculated into 6- to 8-week old WT, Mgat5^−/−, St6gal1^−/− or Rag1^−/− B6 mice. CT26 (5×10^5) cells were injected into syngeneic BALB/c mice. […] Two weeks after tumor inoculation, TDLN cells (5×10^5/well) were re-stimulated ex vivo for 72 hours with lysates of B16-F0 or LLC1 cells and analyzed for proliferation and cytokine production (as described in Rubinstein et al., Cancer Cell 5:3, 241-51 (2004)).

## CNC(=O)c1ccccc1Sc1ccc2c(/C=C/c3ccccn3)n[nH]c2c1 [Axitinib, reference compound]
  angiogenic compensatory program: eliminated

Source: patent publication US11020478B2, “Methods for modulating angiogenesis of cancers refractory to anti-VEGF treatment” (INIS BIOTECH LLC, priority 2013, dated 2021)
